Here are results for 4 molecules from patent publication US6887713B2, “Bioactive chip mass spectrometry” (Intrinsic Bioprobes, Inc., priority 2000, dated 2005).

The target in assay [1] is T1, streptavidin (Streptomyces avidinii, UniProt P22629). In words: MALDI-TOF MS intensity ratio before and after SPR capture, against Pep K.
The target of assay [2] is T1, streptavidin. Put plainly: SPR, streptavidin immobilised. On the technique in general: In SPR one partner is held on a chip, and binding of the other changes the refractive index at the surface.
Assay [3] has as its target T1, streptavidin. In words: SPR, streptavidin immobilised, mixture of 10.0 µM Pep K and 10.0 µM Pep R.
Assay [4] addresses T1, streptavidin. In words: MALDI-TOF MS relative ion signal before and after SPR capture.

Results are given in words; binding and its absence hold for the method and conditions named. Some entries that bind do so weakly or less than the wild type.

As to SGTSFHPQWIMVGRVATNSP [Pep R], the binding result in assay [1], in assay [2] and in assay [3] was “binds” each time.
With SGTSFHPQWIMVGRVATNSP (oxidized (residue not stated)) [oxidized Pep R], in assay [4], the binding result was “binds”.
In the case of SGTSFHPQWIMVGKVATNSP (oxidized (residue not stated)) [oxidized Pep K], the binding entry in assay [4] is reported as “binds”.
With SGTSFHPQWIMVGKVATNSP [Pep K], the binding result in assay [2] and in assay [3] was “binds” in each case.
